Measured values from patent US20200040081A1.
No constants are given. Whether binding was seen depends on the method and setting. Some results given as binding are weak or reduced against the parent protein; the word gives no strength.

Protein sequences, listed by entry. Tags and fused reporters are not part of them.
UniProt Q6DKI7: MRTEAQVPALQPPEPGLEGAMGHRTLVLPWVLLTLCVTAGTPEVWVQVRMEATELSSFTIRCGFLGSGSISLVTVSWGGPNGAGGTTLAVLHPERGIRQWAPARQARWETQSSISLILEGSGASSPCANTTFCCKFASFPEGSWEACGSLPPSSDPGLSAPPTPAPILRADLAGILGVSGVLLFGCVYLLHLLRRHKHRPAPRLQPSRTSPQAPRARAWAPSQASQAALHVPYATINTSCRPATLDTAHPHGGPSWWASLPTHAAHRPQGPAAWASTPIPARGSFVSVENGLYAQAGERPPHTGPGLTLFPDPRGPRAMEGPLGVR

B1: Antibody 33 (antibody, V domains shown)
VH: QVQLVQSGAEVKKPGSSVKVSCKASGGTFGNYAISWVRQAPGQGLEWMGGIIPIPGIANYAQKFQGRVTITADESTSTAYMELSSLRSEDTAVYYCARDTGRGYTRHFWFDPWGQGTLVTVSS
VL: DIQMTQSPSSLSASVGDRVTITCRASQSISSYLNWYQQKPGKAPKLLIYAASSLQSGVPSRFSGSGSGTDFTLTISSLQPEDFATYYCQQSDILYTFGGGTKVEIK
B2: Antibody 34 (antibody, V domains shown)
VH: QVQLVQSGAEVKKPGSSVKVSCKASGGTFSSAAISWVRQAPGQGLEWMGGIFPISGHANYAQKFQGRVTITADESTSTAYMELSSLRSEDTAVYYCARDTGRGYTRHFWFDPWGQGTLVTVSS
VL: DIQMTQSPSSLSASVGDRVTITCRASQSISSYLNWYQQKPGKAPKLLIYAASSLQSGVPSRFSGSGSGTDFTLTISSLQPEDFATYYCQQSDILYTFGGGTKVEIK
B3: Antibody 46 (antibody, V domains shown)
VH: EVQLVESGGGLVQPGRSLRLSCTASGFTFGDYAMSWFRQAPGKGLEWVGFIGSKAYGGTTEYTASVKGRFTISRDGSKSIAYLQMNSLKTEDTAVYYCARGPRRYTYGMDVWGQGTTVTVSS
VL: DIQMTQSPSSLSASVGDRVTITCRASQSISSYLNWYQQKPGKAPKLLIYAASSLQSGVPSRFSGSGSGTDFTLTISSLQPEDFATYYCQQSSTPLTFGGGTKVEIK
B4: Antibody 35 (antibody, V domains shown)
VH: QVQLVQSGAEVKKPGSSVKVSCKASGGTFSSAAISWVRQAPGQGLEWMGNIIPIVGIANYAQKFQGRVTITADESTSTAYMELSSLRSEDTAVYYCARDTGRGYTRHFWFDPWGQGTLVTVSS
VL: DIQMTQSPSSLSASVGDRVTITCRASQSISSYLNWYQQKPGKAPKLLIYAASSLQSGVPSRFSGSGSGTDFTLTISSLQPEDFATYYCQQSDILYTFGGGTKVEIK
B5: Antibody 36 (antibody, V domains shown)
VH: QVQLVQSGAEVKKPGSSVKVSCKASGGTFATYAISWVRQAPGQGLEWMGGIFPLSGTANYAQKFQGRVTITADESTSTAYMELSSLRSEDTAVYYCARDTGRGYTRHFWFDPWGQGTLVTVSS
VL: DIQMTQSPSSLSASVGDRVTITCRASQSISSYLNWYQQKPGKAPKLLIYAASSLQSGVPSRFSGSGSGTDFTLTISSLQPEDFATYYCQQSDILYTFGGGTKVEIK
B6: Antibody 58 (antibody, V domains shown)
VH: EVQLVESGGGLVQPGRSLRLSCTASGFTFGDYAMSWFRQAPGKGLEWVGFIGSKFYGGETEYTASVKGRFTISRDGSKSIAYLQMNSLKTEDTAVYYCARGPRRYTYGMDVWGQGTTVTVSS
VL: DIQMTQSPSSLSASVGDRVTITCRASQSISSYLNWYQQKPGKAPKLLIYAASSLQSGVPSRFSGSGSGTDFTLTISSLQPEDFATYYCQQSSTPLTFGGGTKVEIK
B7: Antibody 2 (antibody, V domains shown)
VH: EVQLVESGGGLVKPGGSLRLSCAASGFTFSEYTMNWVRQAPGKGLEWVSAIVGSGDSTYYADSVKGRFTISRDNSKNTLYLQMNSLRAEDTAVYYCAKDYSSGDWIDYGMDVWGQGTTVTVSS
VL: DIQMTQSPSSLSASVGDRVTITCQASQDISNYLNWYQQKPGKAPKLLIYDASNLATGVPSRFSGSGSGTDFTFTISSLQPEDIATYYCQQFDLLPPTFGGGTKVEIK
B8: Antibody 5 (antibody, V domains shown)
VH: EVQLLESGGGLVQPGGSLRLSCAASGFTFSDYAMIWVRQAPGKGLEWVSAISGGGESTYYADSVKGRFTISRDNSKNTLYLQMNSLRAEDTAVYYCAKDYSSGDWIDYGMDVWGQGTTVTVSS
VL: DIQMTQSPSSLSASVGDRVTITCQASQDISNYLNWYQQKPGKAPKLLIYDASNLATGVPSRFSGSGSGTDFTFTISSLQPEDIATYYCQQFDLLPPTFGGGTKVEIK
B9: Antibody 15 (antibody, V domains shown)
VH: EVQLVESGGGLVQPGRSLRLSCTASGFTFGDVAMSWFRQAPGKGLEWVGYIGSKAYGGETEYTASVKGRFTISRDGSKSIAYLQMNSLKTEDTAVYYCARAGHSYGSIASNWFDPWGQGTLVTVSS
VL: DIQMTQSPSSLSASVGDRVTITCRASQSISSYLNWYQQKPGKAPKLLIYGASSLQSGVPSRFSGSGSGTDFTLTISSLQPEDFATYYCQQGFYTPWTFGGGTKVEIK
B10: Antibody 44 (antibody, V domains shown)
VH: QVQLVQSGAEVKKPGSSVKVSCKASGGTFDNYYISWVRQAPGQGLEWMGGIFPIFGTANYAQKFQGRVTITADESTSTAYMELSSLRSEDTAVYYCAREVGHYSGSPYYMDVWGKGTTVTVSS
VL: DIQMTQSPSTLSASVGDRVTITCRASQSINSWLAWYQQKPGKAPKLLISDASSLESGVPSRFSGSGSGTEFTLTISSLQPDDFATYYCQQVGPYLTFGGGTKVEIK

molecular target: human CD112R over-expressed on Jurkat cells (human) (UniProt Q6DKI7); experiment: flow cytometry on Jurkat-CD112R OE cells

binding, binds:
B1
B2
B3
B4
B5
B6
B7
B8
B9
B10
